Assay results: article doi:10.1101/2020.11.13.381095 (bioRxiv, 2020)
Like-named read-outs stand apart in the source and are kept apart here. These are yes or no findings as the source states them, for the method shown. Some entries that bind do so weakly or less than the wild type.

What was measured:
Assay in all cases: SPR
adrenodoxin [1] = molecular target: T1, adrenodoxin (human, UniProt P10109 61-184)
T1 sequence (looked up): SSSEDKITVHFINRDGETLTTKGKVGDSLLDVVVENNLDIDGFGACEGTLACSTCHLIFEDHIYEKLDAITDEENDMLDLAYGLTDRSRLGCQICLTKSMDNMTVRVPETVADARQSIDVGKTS

adrenodoxin [2] = molecular target: T1, adrenodoxin; remark: listed apart in the source
adrenodoxin [3] = molecular target: T1, adrenodoxin; remark: listed apart in the source
adrenodoxin [4] = molecular target: T1, adrenodoxin; remark: listed apart in the source
adrenodoxin [5] = molecular target: T1, adrenodoxin; remark: listed apart in the source
adrenodoxin [6] = molecular target: T1, adrenodoxin; remark: listed apart in the source

Measured: binding

B1: cytochrome P450 CYP11A1 (cholesterol side chain cleavage enzyme) (enzyme, human)
chain: STRSPRPFNEIPSPGDNGWLNLYHFWRETGTHKVHLHHVQNFQKYGPIYREKLGNVESVYVIDPEDVALLFKSEGPNPERFLIPPWVAYHQYYQRPIGVLLKKSAAWKKDRVALNQEVMAPEATKNFLPLLDAVSRDFVSVLHRRIKKAGSGNYSGDISDDLFRFAFESITNVIFGERQGMLEEVVNPEAQRFIDAIYQMFHTSVPMLNLPPDLFRLFRTKTWKDHVAAWDVIFSKADIYTQNFYWELRQKGSVHHDYRGILYRLLGDSKMSFEDIKANVTEMLAGGVDTTSMTLQWHLYEMARNLKVQDMLRAEVLAARHQAQGDMATMLQLVPLLKASIKETLRLHPISVTLQRYLVNDLVLRDYMIPAKTLVQVAIYALGREPTFFFDPENFDPTRWLSKDKNITYFRNLGFGWGVRQCLGRRIAELEMTIFLINMLENFRVEIQHLSDVGTTFNLILMPEKPISFTFWPFNQEATQQ
binds: adrenodoxin [1] | adrenodoxin [2]

B2: cytochrome P450 CYP11B1 (11ß-hydroxylase) (enzyme, human)
chain: VPRTVLPFEAMPRRPGNRWLRLLQIWREQGYEDLHLEVHQTFQELGPIFRYDLGGAGMVCVMLPEDVEKLQQVDSLHPHRMSLEPWVAYRQHRGHKCGVFLLNGPEWRFNRLRLNPEVLSPNAVQRFLPMVDAVARDFSQALKKKVLQNARGSLTLDVQPSIFHYTIEASNLALFGERLGLVGHSPSSASLNFLHALEVMFKSTVQLMFMPRSLSRWTSPKVWKEHFEAWDCIFQYGDNCIQKIYQELAFSRPQQYTSIVAELLLNAELSPDAIKANSMELTAGSVDTTVFPLLMTLFELARNPNVQQALRQESLAAAASISEHPQKATTELPLLRAALKETLRLYPVGLFLERVASSDLVLQNYHIPAGTLVRVFLYSLGRNPALFPRPERYNPQRWLDIRGSGRNFYHVPFGFGMRQCLGRRLAEAEMLLLLHHVLKHLQVETLTQEDIKMVYSFILRPSMFPLLTFRAIN
binds: adrenodoxin [3] | adrenodoxin [4] | adrenodoxin [5] | adrenodoxin [6] | adrenodoxin [2]

B3: cytochrome P450 CYP11B2 (aldosterone synthase) (enzyme, human, UniProt P19099 25-503, looked up)
chain: GTRAARAPRTVLPFEAMPQHPGNRWLRLLQIWREQGYEHLHLEMHQTFQELGPIFRYNLGGPRMVCVMLPEDVEKLQQVDSLHPCRMILEPWVAYRQHRGHKCGVFLLNGPEWRFNRLRLNPDVLSPKAVQRFLPMVDAVARDFSQALKKKVLQNARGSLTLDVQPSIFHYTIEASNLALFGERLGLVGHSPSSASLNFLHALEVMFKSTVQLMFMPRSLSRWISPKVWKEHFEAWDCIFQYGDNCIQKIYQELAFNRPQHYTGIVAELLLKAELSLEAIKANSMELTAGSVDTTAFPLLMTLFELARNPDVQQILRQESLAAAASISEHPQKATTELPLLRAALKETLRLYPVGLFLERVVSSDLVLQNYHIPAGTLVQVFLYSLGRNAALFPRPERYNPQRWLDIRGSGRNFHHVPFGFGMRQCLGRRLAEAEMLLLLHHVLKHFLVETLTQEDIKMVYSFILRPGTSPLLTFRAIN
binds: adrenodoxin [3] | adrenodoxin [2]
